# Reference: the supplement of paper PMC8728848
# The list shows a part of the results.
# B1: LERP (Drosophila melanogaster), B7Z0Q8 (protein)
# chain: MRCSLQKDCAAPTQENFRQMRFPIVISLLLLLFCSGESVAADAANQLKFSTTECKLKEPIYGSTFDFSGLHSDLAHVVKSMNIGGDQFEFNICGNLSRTCNGESNVAACLKRQGKEYILGRQHELFYNNGNMFLKYKSGAKCDNGTADKPNYQLHVMFSCDYTLDAQPMHVTPYANEVCSFYISYRTPLACLSIPEGLQSNSCRVGDTKSNGTFDLMPLSDSNYHTSNRQGAFFVINVCKPVLYGENSMCPAGSSVCLFDSKATNPKERFINFGNVQTHPVVEKGQLLLRHESPTPCAKNSSANYTSVIYFSCDKFIRNAHPEFAGLGADSCTYQFNFATPLACNDLKPCTAFTSTNELLDLSSLSSKPARTLLKDGKNYTIAVCAHAGAPCQENGGACYEQNSTTISLGNSNSQLRFNQTGSLYLLYEDGAECSTATGMRRWSTKIEFVCANNATKDNGASTAGGSDSLKIIEDSNCQLLIQYQTPLACREPIRCKATTYVDHTNDGLGSSGDELIDLTPLISATDNYEARVELPASMEHLVPKTTKFFLNVCRPLVPKYQLGCAGGSAACMAKVTAAGAPEEERSMGFPLVSLTQRNRTFAELAYLKGDPCPTDNTSELSTHILFNCNMRAGRGQPVLRSVEDCAYRFEWETNVFCPPHECTFSADTCDLVHDELGRRFNFKSAPFTKDGKIEIDYNATKMSVNICGAHRKAMTDYSQALVNIFFTHESPNCGREGTMNVQIRLICSDQTESSSTISSDQQCNLLYVQRTPSICEFLSLGATQQNFESNGSTSSSTSSSSTSTTTSTTTQASPAGKPTKAATSTTTTTVGPDPAATPIGPTASVGTILGAILSVTFCVTCLGLLAFSPARRQRIRRLFRRSNSAVRYSRVQSNEEANLLLEPNGEFTESDDDMLL
# What was measured:
# Experiment in all cases: glycan array binding signal (z-score within array); higher = stronger binding
# Details in all cases: glycan notation: IUPAC condensed, linker removed
# [1] = molecular target: Fuc(a1-3)[Gal3S(b1-4)]GlcNAc
# How it was run: (§1)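 The binding signal is a Z-score computed within each array. Data were drawn from 3228 arrays in the Consortium for Functional Glycomics database, restricted to those with a known protein sequence. Scores were averaged over arrays of the same protein sequence at different concentrations or buffers, and over linkers, and negative values can be taken as non-binding.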
# [2] = molecular target: Fuc(a1-3)[Gal3S(b1-4)]GlcNAc6S
# How it was run: as §1
# [3] = molecular target: Fuc(a1-3)[GalNAc(b1-4)]GlcNAc
# How it was run: as §1
# Fuc(a1-4)GlcNAc = molecular target: Fuc(a1-4)GlcNAc
# How it was run: as §1
# Fuc(b1-3)GlcNAc = molecular target: Fuc(b1-3)GlcNAc
# How it was run: as §1
# Gal(a1-2)Gal = molecular target: Gal(a1-2)Gal
# How it was run: as §1
# Gal(a1-3)Gal = molecular target: Gal(a1-3)Gal
# How it was run: as §1
# Gal(a1-3)Gal(b1-3)GlcNAc = molecular target: Gal(a1-3)Gal(b1-3)GlcNAc
# How it was run: as §1
# [4] = molecular target: Gal(a1-3)Gal(b1-3)GlcNAc(b1-2)Man(a1-3)[Gal(a1-3)Gal(b1-3)GlcNAc(b1-2)Man(a1-6)]Man(b1-4)GlcNAc(b1-4)GlcNAc
# How it was run: as §1
# [5] = molecular target: Gal(a1-3)Gal(b1-3)[Fuc(a1-4)]GlcNAc(b1-2)Man(a1-3)[Gal(a1-3)Gal(b1-3)[Fuc(a1-4)]GlcNAc(b1-2)Man(a1-6)]Man(b1-4)GlcNAc(b1-4)GlcNAc
# How it was run: as §1
# Gal(a1-3)Gal(b1-4)Glc = molecular target: Gal(a1-3)Gal(b1-4)Glc
# How it was run: as §1
# Gal(a1-3)Gal(b1-4)GlcNAc = molecular target: Gal(a1-3)Gal(b1-4)GlcNAc
# How it was run: as §1
# [6] = molecular target: Gal(a1-3)Gal(b1-4)GlcNAc(b1-3)GalNAc
# How it was run: as §1
# [7] = molecular target: Gal(a1-3)Gal(b1-4)[Fuc(a1-3)]GlcNAc
# How it was run: as §1
# [8] = molecular target: Gal(a1-3)Gal(b1-4)[Fuc(a1-3)]GlcNAc(b1-2)Man(a1-3)[Gal(a1-3)Gal(b1-4)[Fuc(a1-3)]GlcNAc(b1-2)Man(a1-6)]Man(b1-4)GlcNAc(b1-4)GlcNAc
# How it was run: as §1
# Gal(a1-3)GalNAc = molecular target: Gal(a1-3)GalNAc
# How it was run: as §1
# [9] = molecular target: Gal(a1-3)[Gal(a1-4)]Gal(b1-4)GlcNAc
# How it was run: as §1
# [10] = molecular target: Gal(a1-4)Gal(b1-3)GlcNAc(b1-2)Man(a1-3)[Gal(a1-4)Gal(b1-3)GlcNAc(b1-2)Man(a1-6)]Man(b1-4)GlcNAc(b1-4)GlcNAc
# How it was run: as §1
# Gal(a1-4)Gal(b1-4)Glc = molecular target: Gal(a1-4)Gal(b1-4)Glc
# How it was run: as §1
# Gal(a1-4)Gal(b1-4)GlcNAc = molecular target: Gal(a1-4)Gal(b1-4)GlcNAc
# How it was run: as §1
# [11] = molecular target: Gal(a1-4)Gal(b1-4)GlcNAc(b1-2)Man(a1-3)[Gal(a1-4)Gal(b1-4)GlcNAc(b1-2)Man(a1-6)]Man(b1-4)GlcNAc(b1-4)GlcNAc
# How it was run: as §1
# [12] = molecular target: Gal(a1-4)Gal(b1-4)GlcNAc(b1-3)Gal(b1-4)Glc
# How it was run: as §1
# Gal(a1-4)GlcNAc = molecular target: Gal(a1-4)GlcNAc
# How it was run: as §1
# Gal(a1-6)Glc = molecular target: Gal(a1-6)Glc
# How it was run: as §1
# Gal(b1-2)Gal = molecular target: Gal(b1-2)Gal
# How it was run: as §1
# Gal(b1-3)Gal = molecular target: Gal(b1-3)Gal
# How it was run: as §1
# Gal(b1-3)Gal(b1-4)GlcNAc = molecular target: Gal(b1-3)Gal(b1-4)GlcNAc
# How it was run: as §1
# [13] = molecular target: Gal(b1-3)Gal(b1-4)GlcNAc(b1-2)Man(a1-3)[Gal(b1-3)Gal(b1-4)GlcNAc(b1-2)Man(a1-6)]Man(b1-4)GlcNAc(b1-4)GlcNAc
# How it was run: as §1
# Gal(b1-3)GalNAc = molecular target: Gal(b1-3)GalNAc
# How it was run: as §1
# [14] = molecular target: Gal(b1-3)GalNAc(a1-3)[Fuc(a1-2)]Gal(b1-4)Glc
# How it was run: as §1
binder,measurement,setting,value
B1,glycan array binding signal (z-score),[1],0.568
same,glycan array binding signal (z-score),[2],0.218
same,glycan array binding signal (z-score),[3],0.429
same,glycan array binding signal (z-score),Fuc(a1-4)GlcNAc,0.112
same,glycan array binding signal (z-score),Fuc(b1-3)GlcNAc,-0.045
same,glycan array binding signal (z-score),Gal(a1-2)Gal,0.982
same,glycan array binding signal (z-score),Gal(a1-3)Gal,-0.266
same,glycan array binding signal (z-score),Gal(a1-3)Gal(b1-3)GlcNAc,-0.704
same,glycan array binding signal (z-score),[4],1.82
same,glycan array binding signal (z-score),[5],0.657
same,glycan array binding signal (z-score),Gal(a1-3)Gal(b1-4)Glc,1.04
same,glycan array binding signal (z-score),Gal(a1-3)Gal(b1-4)GlcNAc,-0.471
same,glycan array binding signal (z-score),[6],0.511
same,glycan array binding signal (z-score),[7],-0.724
same,glycan array binding signal (z-score),[8],0.236
same,glycan array binding signal (z-score),Gal(a1-3)GalNAc,-0.56
same,glycan array binding signal (z-score),[9],-0.47
same,glycan array binding signal (z-score),[10],0.7
same,glycan array binding signal (z-score),Gal(a1-4)Gal(b1-4)Glc,0.234
same,glycan array binding signal (z-score),Gal(a1-4)Gal(b1-4)GlcNAc,-0.629
same,glycan array binding signal (z-score),[11],-0.39
same,glycan array binding signal (z-score),[12],2.8
same,glycan array binding signal (z-score),Gal(a1-4)GlcNAc,-0.583
same,glycan array binding signal (z-score),Gal(a1-6)Glc,-1.03
same,glycan array binding signal (z-score),Gal(b1-2)Gal,1.68
same,glycan array binding signal (z-score),Gal(b1-3)Gal,0.515
same,glycan array binding signal (z-score),Gal(b1-3)Gal(b1-4)GlcNAc,0.358
same,glycan array binding signal (z-score),[13],-0.06
same,glycan array binding signal (z-score),Gal(b1-3)GalNAc,0.158
same,glycan array binding signal (z-score),[14],-0.768

# Some of the entries so far, bar-delimited:
binder | measurement | setting | value
B1 | glycan array binding signal (z-score) | [11] | -0.39
same | glycan array binding signal (z-score) | Gal(b1-3)GalNAc | 0.158
